Data: PMC7819943, “Rice protein-binding microarrays: a tool to detect cis-acting elements near promoter regions in rice”
This is one part of the list.

Chains of the proteins cited; added tags and fusions are not shown.
UniProt Q0JBA9, entry or part of it: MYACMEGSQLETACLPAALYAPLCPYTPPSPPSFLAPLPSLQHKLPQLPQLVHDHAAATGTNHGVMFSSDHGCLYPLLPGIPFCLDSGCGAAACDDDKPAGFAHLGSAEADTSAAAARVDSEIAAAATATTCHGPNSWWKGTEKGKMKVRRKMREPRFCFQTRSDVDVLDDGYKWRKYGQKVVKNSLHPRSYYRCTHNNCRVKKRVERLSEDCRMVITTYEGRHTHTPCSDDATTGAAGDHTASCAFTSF

Biological target: OsWRKY34 (Oryza sativa, UniProt Q0JBA9 1-250)
Assay: protein-binding microarray (RPBM); PBS, 2% BSA, 51.3 ng/ul salmon testes DNA, 50 uM zinc acetate, 200 nM TF, 25 C, 1 h; high values mean tight binding
Conditions: protein: recombinant; tags: N-terminal polyhistidine and DsRed monomer fusion (pET32a); label: CyDye5-dUTP incorporated in the synthesized complementary strand; 3' TTTTT single-stranded linker to array surface; dsDNA, one strand shown
Procedure, shortened: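 An Axon 4000B scanner gave the binding signal as per-feature fluorescence intensity in arbitrary units. This followed washing of a custom Agilent array that had been incubated for 1 h at 25 °C with 200 nM protein in PBS, 2% BSA, salmon testes DNA and 50 µM zinc acetate. The proteins were transcription factors fused at the N-terminus to polyhistidine and DsRed, expressed in E. coli BL21-CodonPlus and purified on Ni–NTA.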

Row | Sequence | binding signal
1 | GTTGGGTGGTGGTGGCTACTGATGATTACACTATGGCAAACGGAGTCACCTAGTGCAG | 10800 fluorescence intensity (a.u.)
2 | GATTTGCGTGGACACTTTTTAGTATTCTTTGGATATAGTACGGAGTCACCTAGTGCAG | 9150 fluorescence intensity (a.u.)
3 | CGAGAGAGAGAGGGGAGGGTTTTGGGTTGTGCTTAGGTTTCGGAGTCACCTAGTGCAG | 13100 fluorescence intensity (a.u.)
4 | CTCGCTGCATTCCTCCCGCCTTGCCGCCACCGCCAAGCCACGGAGTCACCTAGTGCAG | 10200 fluorescence intensity (a.u.)
5 | ACAATCTCGAATATATCCTAGTACCAACGATCCCCATACTCGGAGTCACCTAGTGCAG | 8440 fluorescence intensity (a.u.)
6 | ATTTGATTGTCTTATGCTTGTTCTTTGATGATAAGCCATACGGAGTCACCTAGTGCAG | 10900 fluorescence intensity (a.u.)
7 | CACCACCGTCCCCGACTTCTTCCACCACCAGCCCGACCCCCGGAGTCACCTAGTGCAG | 8090 fluorescence intensity (a.u.)
8 | TATGACTTGGCCACTTGTCCCGTTGGGCCCTCACCGAGTGCGGAGTCACCTAGTGCAG | 9170 fluorescence intensity (a.u.)
9 | AAATGAATTTATTATGCATACGACCCAACCGTTTGACTCACGGAGTCACCTAGTGCAG | 8280 fluorescence intensity (a.u.)
10 | CCACCATTGCTCTGGTCTCTGGTCCCATCGTCCACTACAGCGGAGTCACCTAGTGCAG | 11000 fluorescence intensity (a.u.)
11 | GGTTTTAGCAACCGTTTCCTTATTTGACTTATGGGGCTAGCGGAGTCACCTAGTGCAG | 8750 fluorescence intensity (a.u.)
12 | ACGTGGCGATGTTATTTTCTATGTTCCTTAACAACTTTTACGGAGTCACCTAGTGCAG | 9000 fluorescence intensity (a.u.)
13 | TTGTTCTGTTTTGAGGTCATGTTTGGCTGTTCTGTGACTGCGGAGTCACCTAGTGCAG | 8610 fluorescence intensity (a.u.)
14 | GCCGCATTTCTCCTTTCCTCCTCTCACTCGCACGGCCCAACGGAGTCACCTAGTGCAG | 8530 fluorescence intensity (a.u.)
15 | TGCTGTTTTGTATTGTTGCTATTTTTTCTTAAGATTACCACGGAGTCACCTAGTGCAG | 10000 fluorescence intensity (a.u.)
16 | ATTCAGGTTTTCCGTCATACCTCCATCTCCTCACGATTCACGGAGTCACCTAGTGCAG | 9030 fluorescence intensity (a.u.)
17 | CAGTCTTGAACTAATTATGGTCTTGTTCGGTTAATCCCTCCGGAGTCACCTAGTGCAG | 8570 fluorescence intensity (a.u.)
18 | GGTCATACGTGTCATATTGCCCCTCAGTTATGCATTCATACGGAGTCACCTAGTGCAG | 8320 fluorescence intensity (a.u.)
19 | CTCCTACAGTCGTACTGCCTCGTCCCGCACTCCGTCAACACGGAGTCACCTAGTGCAG | 11700 fluorescence intensity (a.u.)
20 | ATCTCCTACAACGTTCTCGATGTGCTATCGGGGCCCTTTTCGGAGTCACCTAGTGCAG | 9800 fluorescence intensity (a.u.)
21 | TTGACCACACACACTCCATGTCTAGTACAGTACTCATCTACGGAGTCACCTAGTGCAG | 10600 fluorescence intensity (a.u.)

Row | Sequence | binding signal
22 | GGAGCGCGCGGCTTTTGATTTCGTGGGATCTCAGGGGCGGCGGAGTCACCTAGTGCAG | 8620 fluorescence intensity (a.u.)
23 | TTCCATCGGTCGGCCAGAATTGCTGCATGCTGTTGTCTTACGGAGTCACCTAGTGCAG | 9850 fluorescence intensity (a.u.)
24 | CACATGATGGCAGGGCAGGGTTCACATGAGCTCTAACGGTCGGAGTCACCTAGTGCAG | 8140 fluorescence intensity (a.u.)
25 | CAAAAGTAAAACCATCCCTTGACTTTTGATCGATCGATTGCGGAGTCACCTAGTGCAG | 9470 fluorescence intensity (a.u.)
26 | TGGCACCTTTGGCTACATTGCTCCAGGTATCTACTATATTCGGAGTCACCTAGTGCAG | 8120 fluorescence intensity (a.u.)
27 | AGCAACATCTTTATAATCTCTCTGCTGGATTAATTATTTTCGGAGTCACCTAGTGCAG | 8470 fluorescence intensity (a.u.)
28 | ACTGTAATAAGTTTGGGACTGTGCTGGTTGTCCTCGATCCCGGAGTCACCTAGTGCAG | 8080 fluorescence intensity (a.u.)
29 | AAGAACATTCTTCCTGACTATTTTCTGGGTTTTCTGTTCTCGGAGTCACCTAGTGCAG | 10300 fluorescence intensity (a.u.)
30 | GTGGCGTGGTGTGGTGGGGTCGCGGCGCTGCGCGCGGACGCGGAGTCACCTAGTGCAG | 8600 fluorescence intensity (a.u.)
31 | TCTGCAGCCAGAGCCAGCCAACCGAGCACACATCTTGTTACGGAGTCACCTAGTGCAG | 9740 fluorescence intensity (a.u.)
32 | TTCTTTCTTCTCTGAATGTATCTCTACATATGCACGAATGCGGAGTCACCTAGTGCAG | 8910 fluorescence intensity (a.u.)
33 | TCCTCCAATCGGAGAGGTGTGCTCGCGTGTTTGGTTTGACCGGAGTCACCTAGTGCAG | 10400 fluorescence intensity (a.u.)
34 | CTAGTGATCAGAATCCATCTCCTCGTTTCCACCTCTGTTGCGGAGTCACCTAGTGCAG | 8310 fluorescence intensity (a.u.)
35 | GTCACAACACCACGTTGACCTGCGATTCTGCGAGCTGAACCGGAGTCACCTAGTGCAG | 8290 fluorescence intensity (a.u.)
36 | GATGATCAGGCTTTTGACTTTGCTCGGTATAGTCACTCATCGGAGTCACCTAGTGCAG | 8390 fluorescence intensity (a.u.)
37 | CCGGCCCATCGCTTTGTCGCGACGCGCGCGCATCGATCCCCGGAGTCACCTAGTGCAG | 8760 fluorescence intensity (a.u.)
38 | TAACATTGCCTGGTTCAGGAATTCATTTATTTTGTTGTTTCGGAGTCACCTAGTGCAG | 8910 fluorescence intensity (a.u.)
39 | GCAGCGCCCGTAACCTCGTACGTATCGCCTCGTGGGAAGCCGGAGTCACCTAGTGCAG | 8050 fluorescence intensity (a.u.)
40 | GGAGGCGGGGAAGGGGTCTGGCGGCAGGAAATGAGGAGTCCGGAGTCACCTAGTGCAG | 13500 fluorescence intensity (a.u.)
41 | GCTAGCTAGCCGTGTTCCTGTTCTTGGTTTCTTTCATCCACGGAGTCACCTAGTGCAG | 13200 fluorescence intensity (a.u.)
42 | CATGCCCGCAAACTCCGTCCCCGTCTACCATCTAGATGTCCGGAGTCACCTAGTGCAG | 8192 fluorescence intensity (a.u.)

Part of the list above, as comma-separated lines:
Row,Sequence,binding signal
24,CACATGATGGCAGGGCAGGGTTCACATGAGCTCTAACGGTCGGAGTCACCTAGTGCAG,8140 fluorescence intensity (a.u.)
42,CATGCCCGCAAACTCCGTCCCCGTCTACCATCTAGATGTCCGGAGTCACCTAGTGCAG,8192 fluorescence intensity (a.u.)
